Among the data in patent publication US20240174758A1 (AstraZeneca / MedImmune, published 2024) are binding values, retold here.

No constants are given. Whether binding was seen depends on the method and setting.

Assay [1] addresses CCR5. Description: cell binding by the methods of Example 4.
Assay [2] deals with CCR8. Description: cell binding by the methods of Example 4.
For assay [3], the target named is CXCR1. As to the kind of experiment: cell binding by the methods of Example 4.
For assay [4], the target named is CXCR2. As to the kind of experiment: cell binding by the methods of Example 4.
In assay [5] the target is CCR5. Description: binding to cells expressing CCR5, FL1 counts against Log M.
Assay [6] addresses CCR8. As to the kind of experiment: binding to cells expressing CCR8, FL1 counts against Log M.
Assay [7] addresses CXCR2. Description: binding to cells expressing CXCR2, FL1 counts against Log M.
Assay [8] addresses CXCR1. As to the kind of experiment: binding to cells expressing CXCR1, FL1 counts against Log M.

B1: Humanised AB1020243 (AB1020243-fgl) (antibody, V domains shown)
VH: QVQLVQSGAEVKKPGASVKVSCKASGYTFTSYWMHWVRQAPGQGLEWIGVIYPGNSDTRYNQKFKGRVTITRDTSASTAYMELSSLRSEDTAVYYCTRDYYSNYVYYYAMDYWGQGTTVTVSS
VL: DIVMTQTPLSLPVTPGEPASISCRSSQSLVHSNGNTYLHWYLQKPGQSPQLLIYKVSNRFSGVPDRFSGSGSGTDFTLKISRVEAEDVGVYYCSQSTHVPWTFGQGTKLEIK
notes: For LigandTracer it was labelled with DyLight 650 on an engineered cysteine in CH2; also called humanised AB1020243 afuc
For B1, the binding entry in the assay with CCR5 [1] is recorded as “no binding”; with CCR8 [2] it was “no binding”; with CXCR1 [3] it was “no binding”; in the assay with CXCR2 [4], “no binding”; with CCR5 [5], “no binding (tested: Log M about -6.5 (about 3e-7 M))”; with CCR8 [6], “no binding (tested: Log M about -6.5 (about 3e-7 M))”. In addition, the binding result with CXCR2 [7] and with CXCR1 [8] was “no binding (tested: Log M about -6.5 (about 3e-7 M))” throughout.

B2: AB243LO0326 (antibody, V domains shown)
VH: QVQLVQSGAEVKKPGASVKVSCKASGYTFTSYWMHWVRQAPGQGLEWIGVIYPGNSDTRYNQKFKGRVTITRDTSASTAYMELSSLRSEDTAVYYCTRDYYSNYVYYYAMDYWGQGTTVTVSS
VL: DIVMTQTPLSLPVTPGEPASISCRSSQSLVHPNRNTYLHWYLQKPGQSPQLLIYKVSNRFSGVPDRFSGSGSGTDFTLKISRVEAEDVGVYYCSQSTHVPWTFGQGTKLEIK
notes: CDR-optimised humanised antibody, a-fuc huIgG1 (afucosylated in all experiments); For LigandTracer it was labelled with DyLight 650 on an engineered cysteine in CH2; also called CDR-optimised AB1020243
Regarding B2, the binding result in the assay with CCR5 [1] is “no binding”; with CCR8 [2] it was “no binding”; with CXCR1 [3], “no binding”; with CXCR2 [4], “no binding”; with CCR5 [5] it was “no binding (tested: Log M about -6.8 (about 2e-7 M))”; with CCR8 [6], “no binding (tested: Log M about -6.8 (about 2e-7 M))”. Further, the binding result in the assay with CXCR2 [7] and with CXCR1 [8] was “no binding (tested: Log M about -6.8 (about 2e-7 M))” in each case.
